# Laboratory results as given in PubChem BioAssay AID504444 (National Center for Advancing Translational Sciences (NCATS), 2011).
# The whole screen tested about 360,000 compounds, of which about 7,500 (2.1%) were called active. This list was built around the results that the source calls inconclusive (neither active nor inactive); the mix of calls is not that of the screen. The call rests on the fitted dose curve; in most records, active means well fitted inhibition curve with a large enough effect; inconclusive means small, poorly fitted or top-dose-only effect, or effect the other way; inactive means flat fitted curve, though single readings scatter. A potency beside an inconclusive call is a rough fit, not a confirmed value.
# Test: Nrf2 qHTS screen for inhibitors; further: nearly all actives have a fitted effect of over 60% in size
# Settings: A549 ARE-Fluc reporter, luciferase luminescence, 18-24 h; activity change, negative = inhibition: at 46 µM (top of the series)
# Summary of the method: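 Two sequential reads on A549 ARE_Fluc cells exposed to compound for 18-24 h: a CellTiter-Fluor fluorescence read for viability, then a luciferase luminescence read for Nrf2/ARE activity.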
# On the % scale 0 is the no-effect control and ±100 the full control effect; potency means the concentration at half of the fitted maximal effect.
SMILES,Potency,"activity change, negative = inhibition"
Clc1ccc(Oc2nc3c(Cl)cccc3s2)cc1Cl,"inconclusive: 11.6 µM [activator, partial curve]",
CC(C)c1ccc(NC(=O)N2CCN(S(=O)(=O)c3ccccc3)CC2)cc1,"inconclusive: 29.1 µM [falling, partial curve, poor fit]",
Cc1ccc(CNC(=O)c2ccc(Cn3nc(C)cc3C)o2)cc1,,inactive: -9.64%
C#CCn1cc(/C=N/Nc2nc3ccccc3[nH]2)c2ccccc21,"inconclusive: 25.9 µM [activator, partial curve, poor fit]",
Cc1ccc(Nc2c([N+](=O)[O-])c(=O)oc3ccccc23)cc1,active: 18.4 µM,
Cc1ccc(OCC(=O)c2cc(C)n(C3CC3)c2C)c([N+](=O)[O-])n1,"inconclusive: 2.91 µM [activator, full curve]",
CC1=C(C(=O)Nc2cccnc2)C(c2ccc(F)cc2)n2nc(SCc3ccccc3F)nc2N1 (configuration not stated),,inactive: -5.35% [at 9.27 µM]
CC(=O)Oc1ccc2c(c1)CCC1C2CCC2(C)C(OC(C)=O)CCC12 (configuration not stated),"inconclusive: 25.9 µM [falling, partial curve, poor fit]",
Cc1noc(C)c1C(=O)Nc1nc(-c2cccs2)cs1,"inconclusive: 29.1 µM [activator, partial curve, poor fit]",
CC(/C=N/NC(=O)c1cccs1)=C\c1ccccc1,"inconclusive: 6.51 µM [activator, partial curve]",
Cc1ccc(N2NC(=O)/C(=C\c3cc4c(cc3[N+](=O)[O-])OCO4)C2=O)cc1C,"inconclusive: 25.9 µM [falling, partial curve, poor fit]",
COCc1nc2oc3ccccc3c(=O)c2cc1C(=O)OC,"inconclusive: 4.61 µM [activator, full curve]",
COc1cccc(OCc2cc(C(=O)N3CCCC3c3ccccn3)no2)c1 (configuration not stated),"inconclusive: 7.31 µM [activator, partial curve]",
CCOC(=O)c1cnc2c(C)c(Cl)ccc2c1Nc1ccc(C)cc1C,,inactive: -22%
COc1ccc(NS(=O)(=O)c2cccs2)cc1S(=O)(=O)N1CCCCC1,"inconclusive: 20.6 µM [falling, partial curve, poor fit]",
Cc1cccc(S(=O)(=O)Nc2nc3ccccc3nc2Nc2ccc3c(c2)OCO3)c1,"inconclusive: 16.4 µM [falling, single point]",
CN1c2cc(Cl)ccc2-c2nc(SCC(=O)Nc3ccc(F)cc3F)ncc2S1(=O)=O,active: 16.4 µM,
O=C(CCCc1ccccc1)NCCC1=CCCCC1,,inactive: 6.86%
COc1cc2c(cc1OC)CN(C(=O)c1ccc([N+](=O)[O-])o1)CC2,,inactive: 1.21%
CC(C)CNC(=S)N1CCC(C(=O)c2ccc3c(c2)OCCO3)CC1,"inconclusive: 18.4 µM [falling, single point]",
COc1cc2c(c(OC)c1OC)-c1ccc(OC)c(=O)cc1[C@@H](N(C)CC#CCO)CC2,"inconclusive: 0.82 µM [activator, full curve]",
CCOc1ccc(N=Nc2c(N)[nH][nH]c2=O)cc1,"inconclusive: 6.51 µM [activator, single point]",
Cc1nc(-c2ccc(NC(=O)c3ccccc3Br)cc2)cs1,"inconclusive: 0.82 µM [activator, full curve]",

SMILES,Potency,"activity change, negative = inhibition"
CCOC(=O)COc1ccc(S(=O)(=O)N2CCN(c3ccccc3)CC2)cc1,"inconclusive: 18.4 µM [falling, single point]",
CN(C)/N=C/C=C1\CCC/C(=C\c2ccc(F)c(F)c2)C1=O,"inconclusive: 29.1 µM [falling, single point]",
CCc1ccc(CNC(=O)C(CC)n2ccc3cc(S(=O)(=O)N4CCCCC4)ccc32)cc1 (configuration not stated),"inconclusive: 18.4 µM [falling, partial curve, poor fit]",
CCOC(=O)C1CCCN(C(=O)C2CCN(c3nnc(C)c4c(C)n(-c5ccccc5)nc34)CC2)C1 (configuration not stated),"inconclusive: 1.46 µM [activator, partial curve, poor fit]",
CC(C)c1nc(SCC(=O)Nc2cccc(C(F)(F)F)c2)c2c(=O)n(C)c(=O)n(C)c2n1,"inconclusive: 9.2 µM [falling, partial curve, poor fit]",
Cn1c(=O)c2c(nc(N/N=C/c3ccncc3)n2Cc2ccccc2)n(C)c1=O,"inconclusive: 32.6 µM [falling, single point]",
CC(OC(=O)c1cc2c(s1)CCCCC2)C(=O)NC(N)=O (configuration not stated),"inconclusive: 32.6 µM [activator, single point]",
CCCOc1ccc(-c2cc3onc(-c4ccccc4)c3c(=O)n2C)cc1,"inconclusive: 3.26 µM [activator, full curve]",
Oc1ccc(-n2cccc2/C=N/n2cnnc2)cc1,,inactive: -6.98%
Clc1ccc(-c2noc3ncnc(NCCCN4CCN(c5ccccc5)CC4)c23)cc1,,inactive: -5.37%
CCc1ccc2[nH]c(=O)c(CN(Cc3cccnc3)Cc3nnnn3Cc3ccccc3)cc2c1,"inconclusive: 32.6 µM [falling, partial curve, poor fit]",
CCOc1ccccc1NC(=O)C(Cc1ccccc1)NS(=O)(=O)c1ccc(Br)s1 (configuration not stated),active: 18.4 µM,
COc1ccccc1NS(=O)(=O)c1cc(NC(=O)c2sccc2C)ccc1N1CCOCC1,"inconclusive: 16.4 µM [falling, partial curve, poor fit]",
Cc1ccsc1/C=N/Nc1ccc(F)cc1F,"inconclusive: 29.1 µM [activator, single point]",
Cc1ccc(C(=O)NCCNc2ccc(Cl)cc2[N+](=O)[O-])o1,"inconclusive: 13 µM [falling, partial curve, poor fit]",
CCn1c(C)c(C)c2cc(C(=O)NCCc3cc(OC)c(OC)c(OC)c3)ccc21,"inconclusive: 10.3 µM [falling, partial curve]",
CCc1ccc(S(=O)(=O)c2nnn3c2nc(NCc2cccs2)c2sccc23)cc1,,inactive: -2.93%
CCCC[C@@H]1C=C(C(=O)O)[C@H](c2ccc(CC)cc2)N1S(=O)(=O)c1ccc(C)cc1,"inconclusive: 6.51 µM [falling, partial curve]",
COC(=O)C(C)NC(=O)C1CCCN1C(=O)CNC(=O)OCc1ccccc1 (configuration not stated),,inactive: 2.47%
CCOC(=O)c1c(-c2ccccc2)csc1NC(=S)NC(=O)c1ccccc1,"inconclusive: 29.1 µM [falling, partial curve, poor fit]",
COc1cc2oc(=O)cc(-c3ccc(-c4ccc(CO)cc4)cc3)c2c(OC)c1OC,"inconclusive: 23.1 µM [falling, single point]",
CCCSc1nc(N2CCCC2)c2c(c1C#N)CC(C)(C)OC2,"inconclusive: 10.3 µM [falling, partial curve]",
O=C1CN(S(=O)(=O)c2cccc(C(=O)O)c2)c2ccccc2N1,"inconclusive: 0.058 µM [activator, full curve, poor fit]",

SMILES,Potency,"activity change, negative = inhibition"
CCOC(=O)Cn1c(=O)oc2cc(S(=O)(=O)Nc3cc(OC)cc(OC)c3)ccc21,,inactive: 16.1%
Cc1ccc(NC(=O)N2CCC(=O)N2)cc1,,inactive: 12.2%
Cc1nc2ccccn2c1P(=O)(c1ccccc1)c1ccccc1,,inactive: -2.56%
Cc1nc(N)nc(N/N=C/c2c(F)cccc2Cl)n1,"inconclusive: 4.61 µM [activator, full curve, poor fit]",
CN(Cc1cnc2nc(N)nc(N)c2n1)c1ccc(C(=O)NC(CCC(=O)O)C(=O)O)cc1C(F)(F)F (configuration not stated),"inconclusive: 0.259 µM [falling, full curve, poor fit]",
Cc1ccc2ncnc(Nc3cccc([N+](=O)[O-])c3)c2c1,"inconclusive: 29.1 µM [falling, single point]",
Oc1ccc2ccccc2c1N=Nc1nccs1,"inconclusive: 29.1 µM [falling, single point]",
Cc1ccc(NC(=O)CCC(=O)NNS(=O)(=O)c2ccccc2)c(C)c1,"inconclusive: 0.206 µM [activator, full curve, poor fit]",
Nc1nc(NCc2ccccc2Cl)c2[nH]cnc2n1,"inconclusive: 4.11 µM [activator, full curve, poor fit]",
COc1ccc(-c2noc(CSc3nc4ccccc4c(=O)n3-c3ccccc3)n2)cc1,"inconclusive: 29.1 µM [falling, single point]",
Cc1ccc(S(=O)(=O)N(C)CCCC(=O)Nc2cccc3ccccc23)cc1,"inconclusive: 29.1 µM [falling, single point]",
CCOC(=O)c1cc(NC(=O)COc2ccc([N+](=O)[O-])cc2)cc(C(=O)OCC)c1,"inconclusive: 6.51 µM [falling, partial curve, poor fit]",
CCN(C=NC1=NN(c2cccc(C(F)(F)F)c2)CC1)CC,,inactive: 1.65%
CCc1ccc(-c2nc(CSCC(=O)N3CCN(c4ccccn4)CC3)c(C)o2)cc1,active: 16.4 µM,
O=C(Nc1ccc2nc(SCC(=O)N3CCOCC3)sc2c1)c1ccc(F)cc1,"inconclusive: 29.1 µM [falling, single point]",
Cc1ccc(SCc2[nH]nc3c2C(c2ccco2)C(C#N)=C(N)O3)cc1 (configuration not stated),,inactive: 3.92%
Cc1ccc(C(=O)Nc2nc(-c3ccccn3)cs2)s1,,inactive: -18%
Cc1cccc(Cn2ncc(Cl)c(Cl)c2=O)c1,"inconclusive: 20.6 µM [falling, single point]",
Cc1cc(C)c(-c2csc(NC(=O)/C=C/c3cccs3)n2)c(C)c1,active: 23.1 µM,
CCn1nnnc1SCC(=O)Nc1ccc(F)cc1,"inconclusive: 29.1 µM [activator, single point]",
CC(=O)Nc1ccc2nc(C3CCCCC3)[nH]c2c1,"inconclusive: 14.6 µM [activator, partial curve]",

# Some of these compounds in order of number of heavy atoms, low to high:
SMILES,Potency,"activity change, negative = inhibition"
Cc1ccc(NC(=O)N2CCC(=O)N2)cc1,,inactive: 12.2%
Cc1cccc(Cn2ncc(Cl)c(Cl)c2=O)c1,"inconclusive: 20.6 µM [falling, single point]",
Oc1ccc2ccccc2c1N=Nc1nccs1,"inconclusive: 29.1 µM [falling, single point]",
CC(=O)Nc1ccc2nc(C3CCCCC3)[nH]c2c1,"inconclusive: 14.6 µM [activator, partial curve]",
Cc1ccc(C(=O)Nc2nc(-c3ccccn3)cs2)s1,,inactive: -18%
Cc1ccc2ncnc(Nc3cccc([N+](=O)[O-])c3)c2c1,"inconclusive: 29.1 µM [falling, single point]",
CCN(C=NC1=NN(c2cccc(C(F)(F)F)c2)CC1)CC,,inactive: 1.65%
Cc1cc(C)c(-c2csc(NC(=O)/C=C/c3cccs3)n2)c(C)c1,active: 23.1 µM,
Cc1ccc(NC(=O)CCC(=O)NNS(=O)(=O)c2ccccc2)c(C)c1,"inconclusive: 0.206 µM [activator, full curve, poor fit]",
Cc1ccc(S(=O)(=O)N(C)CCCC(=O)Nc2cccc3ccccc23)cc1,"inconclusive: 29.1 µM [falling, single point]",
O=C(Nc1ccc2nc(SCC(=O)N3CCOCC3)sc2c1)c1ccc(F)cc1,"inconclusive: 29.1 µM [falling, single point]",
CCOC(=O)c1cc(NC(=O)COc2ccc([N+](=O)[O-])cc2)cc(C(=O)OCC)c1,"inconclusive: 6.51 µM [falling, partial curve, poor fit]",
CCc1ccc(-c2nc(CSCC(=O)N3CCN(c4ccccn4)CC3)c(C)o2)cc1,active: 16.4 µM,
COc1ccc(-c2noc(CSc3nc4ccccc4c(=O)n3-c3ccccc3)n2)cc1,"inconclusive: 29.1 µM [falling, single point]",
CN(Cc1cnc2nc(N)nc(N)c2n1)c1ccc(C(=O)NC(CCC(=O)O)C(=O)O)cc1C(F)(F)F (configuration not stated),"inconclusive: 0.259 µM [falling, full curve, poor fit]",

# As a working copy, part of the list above.
SMILES,Potency,"activity change, negative = inhibition"
Cc1ccc(NC(=O)CCC(=O)NNS(=O)(=O)c2ccccc2)c(C)c1,"inconclusive: 0.206 µM [activator, full curve, poor fit]",
Nc1nc(NCc2ccccc2Cl)c2[nH]cnc2n1,"inconclusive: 4.11 µM [activator, full curve, poor fit]",
